PubChem BioAssay AID686943, Drosophila RNAi Screening Center | 2013
Screen: 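Knockdowns that increase or decrease active ERK after insulin receptor stimulation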 (primary screen). System: Drosophila S2R+ haemocyte-like cells expressing YFP-tagged ERK (Rolled). Reagents: long dsRNA against Drosophila genes. Conditions: insulin stimulation versus unstimulated cells; dose and duration not given. Measurement: 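Antibody staining for doubly phosphorylated ERK divided by ERK-YFP signal, as plate z-scores, in insulin-treated and untreated cells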. Reading the numbers: replicate 1, z-score of dpERK with insulin and replicate 2, z-score of dpERK with insulin: higher = more active ERK per ERK-YFP after insulin; replicate 1, z-score of dpERK under basal conditions: higher = more basal active ERK per ERK-YFP; replicate 1, z-score of ERK-YFP with insulin: higher = more YFP-tagged ERK signal.
In all, the deposit lists about 23,000 reagents; shown is a random part of those that have a named target and a result. 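Extra replicates exist only for a retested subset of genes; insulin dose and duration not given; both raised and lowered dpERK matter.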 The numbers tell different reagents against one gene apart. Names joined by + are all predicted targets of the reagent. Reagent sequences are not shown. Not given: the amount of reagent, the time to read-out.

predicted target | reagent | replicate 1, z-score of dpERK with insulin | replicate 2, z-score of dpERK with insulin | replicate 1, z-score of dpERK under basal conditions | replicate 1, z-score of ERK-YFP with insulin
Ranbp16 + Lcch3 | 1 | 0.01 | 0.06 | -0.04 | 0.38
topi (matotopetli) | 1 | -0.29 | -0.54 | 0.03 | 0.12
CG3739 | 1 | -0.06 | -0.07 | 0.05 | 0.11
Ctns (Cystinosin) | 1 | -1.24 | -0.09 | -1.23 | -1.11
Rab8 | 1 | 0.27 | 0.68 | 0.17 | 0.07
Rbcn-3A (Rabconnectin-3A) | 1 | 0.98 | -0.23 | 0.71 | -0.39
CG13589 | 1 | 0.71 | 0.87 | 0.56 | -0.8
Ccz1 (Caffeine, calcium, zinc sensitivity 1) | 1 | -0.42 | 0.13 | -0.19 | 1.98
mRpS6 (mitochondrial ribosomal protein S6) | 1 | -0.48 | -0.7 | -0.01 | 1.45
CG4375 | 1 | 0.36 | -0.39 | 0.88 | -0.99
CG34327 | 1 | 0.18 | -0.77 | 1.45 | 0.35
CG34327 | 2 | -2.93 | 0.1 | 0.59 | 0.35
CG5550 | 1 | -0.3 | -1.03 | -1.25 | 0.64
BckdhA (Branched chain keto acid dehydrogenase E1 subunit alpha) | 1 | 0.41 | 0.37 | 0.48 | -0.04
CG7453 | 1 | 0.08 | 0.61 | -0.24 | 1.04
CG13085 | 1 | 0.11 | 0.57 | -0.31 | -0.17
CG32379 | 1 | -0.17 | 0.36 | – | 0.02
CG9839 | 1 | -0.72 | -0.39 | -0.35 | -0.22
p115 | 1 | -0.35 | 0.3 | -0.11 | 0.45
fs(2)ltoPP43 (female sterile (2) ltoPP43) | 1 | -0.36 | -1.41 | -0.86 | -0.15
CG31345 | 1 | 1.32 | 1.11 | 1.14 | -0.58
CG31345 | 2 | 1.18 | -0.24 | -0.31 | -0.77
Nt5c (5' nucleotidase C) | 1 | 1.52 | 0.99 | 3.08 | 0.37
Gdap1 | 1 | -0.87 | 0.18 | -0.06 | 0.5
CG14384 | 1 | -0.5 | -1.59 | -0.6 | 0.47
haf (hattifattener) | 1 | -0.67 | -0.4 | 0.75 | -0.76
Chd64 | 1 | -0.09 | -0.1 | -1.09 | -0.65
CG6271 | 1 | 0.89 | 0.44 | 0.51 | 0.18
ETHR | 1 | 0.07 | 0.5 | -0.06 | -0.3
Aldh-III (Aldehyde dehydrogenase type III) | 1 | 0.52 | 0.05 | -0.4 | 0.57
Nep5 (Neprilysin 5) | 1 | 0.06 | 0.02 | -0.29 | -0.58
mms4 (Methyl methanesulfonate sensitivity 4) | 1 | 0.42 | 0.1 | -0.51 | 0.23
Cpr65Eb (Cuticular protein 65Eb) | 1 | 0.78 | 1.45 | -0.58 | -0.26
TSG101 (Tumor susceptibility gene 101) | 1 | -0.45 | -1.32 | 1.52 | 0.66
Rab3-GEF (Rab3 GDP-GTP exchange factor) | 1 | 0.89 | 0.72 | 1.35 | 0.62
Rab3-GEF (Rab3 GDP-GTP exchange factor) | 2 | 0.39 | 1.48 | 0.61 | 0.32
Rab3-GEF (Rab3 GDP-GTP exchange factor) | 3 | -1.37 | -3.51 | -2.54 | 2.27
ana (anachronism) | 1 | -0.36 | -0.26 | 0.84 | -2.29
mmm (missing minor mitochondria) | 1 | 0.38 | -0.05 | 1.13 | -0.24
spaw (spacewatch) | 1 | -0.67 | -0.58 | -0.19 | 0.61
clos (closca) | 1 | 0.86 | 0.04 | -0.23 | 0.8
clos (closca) | 2 | 1.45 | 0.14 | -0.25 | 0.51
clos (closca) | 3 | 0.31 | -0.38 | 0.5 | 0.17
clos (closca) | 4 | 0.59 | 1.4 | 0.19 | -0.41
clos (closca) | 5 | 0.24 | 0.3 | -0.6 | -0.11
CG18265 | 1 | 0.25 | 0.71 | -0.69 | -0.52
tfc (triforce) | 1 | -0.33 | -0.64 | 0.04 | 0.22
tfc (triforce) | 2 | -0.68 | -0.3 | -0.57 | 0.43
tfc (triforce) | 3 | 0.5 | -0.25 | 0.11 | -0.22
tfc (triforce) | 4 | 0 | -0.1 | -0.21 | 0.64
MED14 (Mediator complex subunit 14) | 1 | 3.29 | 1.82 | -1.78 | -3.97
CG33635 | 1 | -0.17 | 0.76 | -0.25 | 0.57
udt (undicht) | 1 | 0.43 | 1.63 | -0.03 | 0.08
CG34040 | 1 | -0.38 | -0.11 | 1.5 | 0.1
CG9498 | 1 | 1.29 | 1.74 | -0.4 | -2.02
gcm2 | 1 | -0.23 | -0.28 | 0.17 | -0.91
tna (tonalli) | 1 | -0.03 | 0.52 | 0.47 | 0.61
tna (tonalli) | 2 | 1.94 | 1.29 | 1.77 | -0.33
CG13894 | 1 | -1.66 | -3.15 | -0.75 | -1.23
step (steppke) | 1 | -4.48 | -3.89 | 0.27 | 0.71
step (steppke) | 2 | -1.37 | -1.94 | -1.37 | 0.01
CG13002 | 1 | -0.05 | -0.47 | -0.16 | 0.55
Rubicon | 1 | 0.72 | 0.54 | 0.3 | -0.5
CG3918 | 1 | -2.64 | -1.86 | -0.2 | -4.72
SCaMC | 1 | 0.84 | 0.56 | 1.15 | 0.23
SCaMC | 2 | 0.21 | -0.35 | -0.87 | -0.14
CG31775 + CG42586 | 1 | 0.13 | 0.25 | 1.18 | 0.9
Tpl94D (Transition protein-like 94D) | 1 | 2.03 | -0.15 | 0.16 | 0.37
CG11703 | 1 | 0.62 | 0.31 | -0.75 | 0.17
Vps4 (Vacuolar protein sorting 4) | 1 | -2.89 | -2.84 | -1.64 | 0.03
CG2059 | 1 | 0.47 | 0.24 | 0.2 | 0.2
Unr (Upstream of N-ras) | 1 | 0.07 | 0.03 | 0.95 | -0.44
Unr (Upstream of N-ras) | 2 | -0.22 | 0.56 | -0.65 | 0.6

No new results follow: 3 of the entries above.
predicted target | reagent | replicate 1, z-score of dpERK with insulin | replicate 2, z-score of dpERK with insulin | replicate 1, z-score of dpERK under basal conditions | replicate 1, z-score of ERK-YFP with insulin
tna (tonalli) | 2 | 1.94 | 1.29 | 1.77 | -0.33
CG13894 | 1 | -1.66 | -3.15 | -0.75 | -1.23
step (steppke) | 1 | -4.48 | -3.89 | 0.27 | 0.71
